Results deposited as PubChem BioAssay AID1259331 (Drosophila RNAi Screening Center, 2017)
Here is one part, drawn at random, of about 3,100 reagents tested. 126 of all reagents (4.1%) were called active. 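Calls are per reagent; zinc was so toxic that few knock-downs lowered ATP further, so most hits raise ATP.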 Raw values vary from plate to plate and are shown uncorrected. A number with no mark means an inactive call. A plus sign joins genes that one reagent is predicted to hit. Reagent sequences are not shown. Not given: the amount of reagent.

- Test: 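Fly transmembrane-protein genes that affect zinc toxicity in cultured cells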 (primary screen)
- Cells: Drosophila S2R+ cells
- Reagent: long dsRNA against Drosophila genes
- Timing: 5 days (4 days knock-down, then 1 day zinc)
- Treatment: zinc chloride at 15 mM final level for 1 day
- Detection: 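Luminescent ATP assay standing in for viability; Z score is the mean over three replicate plates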
- Reading the numbers: mean Z score: higher = more ATP than other wells, better survival under zinc; ATP luminescence: higher = more ATP, more viable cells
- Active means: 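a reagent is called a hit when its Z score is above 1.5 or below -1.5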
- Calls: active = hit, ATP up or down; inactive = not a hit

no.	Target gene	amplicon	mean Z score	ATP luminescence, replicate 1	ATP luminescence, replicate 2
1	Gr59b	DRSC04179	-0.416	48132	39816
2	wdp	DRSC28581	0.234	63947	66068
3	GluRIIA	DRSC03334	-0.144	46486	38770
4	Hk	DRSC24985	0.254	63187	57048
5	Hk	DRSC39129	0.0696	52641	46955
6	CG8925	DRSC16455	0.00185	37896	60958
7	CG8925	DRSC16457	-0.112	40108	41599
8	Ror	DRSC03414	0.144	51938	41273
9	Ror	DRSC36669	-0.282	44377	44068
10	Ror	DRSC36670	-0.107	46074	45440
11	Or59b	DRSC04632	0.358	57408	44342
12	hec	DRSC19895	0.845	82328	77731
13	hec	DRSC39722	-0.401	56413	55882
14	CG17929	DRSC15291	-0.619	35197	41874
15	CG17929	DRSC39673	5.5 (active)	1.52e5	1.41e5
16	Cngl	DRSC20318	2.18 (active)	91858	1.13e5
17	Cngl	DRSC23577	0.341	59997	60632
18	Octbeta1R	DRSC16134	-0.00046	35751	57339
19	Octbeta1R	DRSC30030	-0.177	46331	44840
20	kcc	DRSC04316	-0.381	27765	29915
21	kcc	DRSC04516	-0.495	43485	43639
22	Inx7 + cm	DRSC18753	-0.443	39833	42730
23	Unc50	DRSC16561	0.247	59689	62752
24	Unc50	DRSC28560	0.46	69172	67783
25	Ca-Ma2d	DRSC29730	0.16	50086	52641
26	Tsp86D	DRSC15607	-0.147	34417	55299
27	Karybeta3	DRSC12355	0.0805	29667	33284
28	Karybeta3	DRSC39901	0.671	66154	76160

Already shown: 2 of the entries above.
no.	Target gene	amplicon	mean Z score	ATP luminescence, replicate 1	ATP luminescence, replicate 2
14	CG17929	DRSC15291	-0.619	35197	41874
15	CG17929	DRSC39673	5.5 (active)	1.52e5	1.41e5
